Laboratory results as given in paper doi:10.1101/2021.10.26.465916.
These are yes or no findings as the source states them, for the method shown. In cells and extracts the contact can be indirect. Some results given as binding are weak or reduced against the parent protein; the word gives no strength.

Protein sequences, listed by entry. Tags and fused reporters are not part of them.
UniProt P0DMV8: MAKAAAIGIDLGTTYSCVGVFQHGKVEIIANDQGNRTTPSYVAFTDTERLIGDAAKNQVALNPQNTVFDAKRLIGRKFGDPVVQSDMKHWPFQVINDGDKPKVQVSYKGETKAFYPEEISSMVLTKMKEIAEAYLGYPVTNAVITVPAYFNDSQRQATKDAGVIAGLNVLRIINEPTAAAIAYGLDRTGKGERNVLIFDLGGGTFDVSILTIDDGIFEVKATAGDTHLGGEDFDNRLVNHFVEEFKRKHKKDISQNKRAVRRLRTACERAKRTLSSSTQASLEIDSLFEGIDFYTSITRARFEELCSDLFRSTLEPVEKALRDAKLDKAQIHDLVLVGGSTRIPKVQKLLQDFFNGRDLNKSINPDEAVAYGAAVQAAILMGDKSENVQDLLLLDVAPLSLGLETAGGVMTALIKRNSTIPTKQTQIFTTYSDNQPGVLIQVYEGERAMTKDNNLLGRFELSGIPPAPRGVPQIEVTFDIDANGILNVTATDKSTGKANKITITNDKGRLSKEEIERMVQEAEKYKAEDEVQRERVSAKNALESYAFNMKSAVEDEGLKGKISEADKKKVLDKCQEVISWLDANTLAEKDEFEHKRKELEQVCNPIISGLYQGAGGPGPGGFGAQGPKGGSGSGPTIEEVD

Biological target: HSPA1A (human (endogenous in HeLa)) (UniProt P0DMV8)
Test: co-IP

B1: myeloid leukemia factor 2 (MLF2) (protein, UniProt Q15773 1-248)
chain: MFRFMRDVEPEDPMFLMDPFAIHRQHMSRMLSGGFGYSPFLSITDGNMPGTRPASRRMQQAGAVSPFGMLGMSGGFMDMFGMMNDMIGNMEHMTAGGNCQTFSSSTVISYSNTGDGAPKVYQETSEMRSAPGGIRETRRTVRDSDSGLEQMSIGHHIRDRAHILQRSRNHRTGDQEERQDYINLDESEAAAFDDEWRRETSRFRQQRPLEFRRLESSGAGGRRAEGPPRLAIQGPEDSPSRQSRRYDW
- binding: binds
